Data as given in patent publication US7026292B1, “Compositions and therapeutic methods using morphogenic proteins and stimulatory factors” (Stryker Corporation, priority 1995, dated 2006).
At least one structure is not confirmed: it was looked up by name or label, or the drawing left a doubt.

Test system: FRC (fetal rat calvarial) cells
Assay: Alkaline phosphatase (AP) activity assay in FRC cells
Format: cell-based
Experimental: A preferred assay for testing potential MPSFs with OP-1 for osteogenic activity is the alkaline phosphatase (AP) enzymatic assay. AP is an osteoblast differentiation marker in primary osteoblastic FRC. (fetal rat calvarial) cells. The OP-1-stimulated AP activity is the result of increased steady-state AP mRNA levels as measured by Northern analysis. The procedure is generally as follows.
Primary osteoblast cell cultures were prepared from fetal rat calvaria using published procedures (M. A. Aronow et al., J. Cell Physiol., 143, pp. 213–221 (1990); T. K. McCarthy et al., J. Bone Miner. Res., 3, pp. 401–8 (1988)). Briefly, cells were harvested by sequential collagenase digestions of the calvarium and cells from digestions III to V were pooled. Fetal rat calvaria (FRC) cells were plated in complete medium (MEM, alpha; GIBCO/BRL, Grand Island, N.Y.) containing 10% fetal bovine serum, vitamin C (100 μg/ml), and antibiotics (100 U/ml penicillin, and […]). Cultures were incubated at 37° C. with 95% air/5% CO2 for several days to reach confluence. Cells were then subcultured for experimentations.
FRC cells were subcultured in 48-well plates (COSTAR, Cambridge, Mass.) in complete MEM medium with 10% fetal bovine serum until confluent in about 4 days. Confluent cells were rinsed with Hank's balanced salt solution (HBSS) and treated with serum-free α-MEM medium (with 0.1% BSA, 100 U/ml penicillin, and […]) containing the appropriate solvent vehicle (50% acetonitrile/0.1% trifluoroacetic acid for OP-1 treatment or 0.1N acetic acid for IGFI treatment) or recombinant human OP-1, or IGFI at the concentrations indicated. Solvent vehicle concentration in the culture medium never exceeded 0.1%. At the end of treatment, cells were lysed and total cellular alkaline phosphatase activity was measured (typically after 48 hours of treatment).
Total cellular alkaline phosphatase activity was determined using a commercial assay kit (Sigma, St. Louis, Mo.). Cell lysates were prepared by aspirating the medium from the 48-well plate, rinsing the cells with ice-cold PBS, and lysing the cells with 0.05% Triton X-100 and sonication for 60 sec. Alkaline phosphatase activity in the lysates was measured in 2-amino-2-methyl-1-propanol buffer (pH 10.3) with p-nitrophenyl phosphate as substrate at 37° C. Reactions were performed in 96-well plates for 1–2 h. […] Absorbance of the reaction was measured at 405 nm using a Hewlett Packard Genenchem automatic plate reader. Total protein level in the lysates was measured according to Bradford (M. Bradford, Anal. Biochem., 72, pp. 248–54 (1976)) using bovine serum albumin as a standard. Alkaline phosphatase activity was expressed as nmol p-nitrophenol liberated per microgram of total cellular protein. […]

[1] = 0.5 nM estradiol + 200 ng/ml OP-1, 48 hours (FIG. 5)

SMILES: C[C@]12CC[C@@H]3c4ccc(O)cc4CC[C@H]3[C@@H]1CC[C@@H]2O [estradiol, reference compound]
- Level of AP activity relative to cells treated with OP-1 alone [1]: about three-fold
- Level of AP activity relative to control [1]: eleven-fold
- MPSF function in concert with OP-1 (figure title) (AP activity in FRC cells, OP-1 200 ng/ml (FIGS. 5–10)): is a MPSF in concert with OP-1
- Stimulation of AP activity by estradiol alone (estradiol 0.05–5.0 nM alone, 48 hours (FIG. 5)): did not appear to stimulate AP activity
